From PubChem BioAssay AID330 (DTP/NCI, 2004)
The list does not hold the whole screen: it gathers tests that were run many times, whatever their T/C, doses with no T/C, and many T/C values between a quarter and a half above the control. Other doses and runs of a compound stand elsewhere. T/C gives the treated animals as a percentage of the vehicle group. Some doses have a count of surviving animals in place of a T/C: the source files T/C as zero there, which appears to mark a toxic dose or a test without result, not a measured value. Some survivor counts are full or nearly so, which does not show that the dose was tolerated: survival well below the control is almost never listed, so the zero probably covers shortened survival too. Counts of survivors are from the toxicity check (mostly the fifth day) where no day follows; animals may have died later. Schedules are NCI's codes, read here as Q, the interval in days (D) or hours (H), X, the number of doses. Some doses were run more than once; their values stand side by side, smallest first. Where survival is the endpoint, this PubChem deposit counts one and a half times the control or more as active, and values a quarter to a half above the control carry no call in these data; other NCI protocols may use other cut-offs. Some T/C values carry the count of animals alive at the toxicity check (mostly the fifth day); where none is given, no animal had died by that day.

Test system: P388 leukemia ip, CD2F1 mice, survival T/C
Experiment: NCI In Vivo Anticancer Drug Screen. Data for tumor model P388 Leukemia (intraperitoneal) in CD2F1 (CDF1) mice
Conditions: T/C endpoint: median survival time, higher T/C = longer survival

How did the T/C (dose: 8.0 mg/kg/injection, schedule: Q01DX005 (ip), vehicle: Klucel (hydroxypropylcellulose) (HPC)) turn out when Cc1[nH]c(=O)[nH]c(=O)c1N(CCF)CCCl was run?
The T/C was 137 % of control.

What about the T/C (dose: 8.0 mg/kg/injection, schedule: Q03HX024 (ip), vehicle: acid diluted with saline) of the same compound?
Its T/C is 125 % of control.

What about the T/C (dose: 8.4 mg/kg/injection, schedule: Q01DX009 (ip), vehicle: saline with Tween-80) of the same compound?
Its T/C is 145 % of control.

And the T/C (dose: 16.0 mg/kg/injection, schedule: Q01DX001 (ip), vehicle: saline)?
Its T/C is 127 % of control.

And the T/C (dose: 16.5 mg/kg/injection, schedule: Q04DX003 (ip), vehicle: saline with Tween-80)?
Its T/C is 133 % of control.

And the T/C (dose: 25.0 mg/kg/injection, schedule: Q04DX003 (ip), vehicle: saline with Tween-80)?
The T/C was 133 % of control.

And the T/C (dose: 32.0 mg/kg/injection, schedule: Q01DX001 (ip), vehicle: acid diluted with saline)?
The T/C was 127 and 131 % of control.

What about the T/C (dose: 32.0 mg/kg/injection, schedule: Q01DX001 (ip), vehicle: saline) of the same compound?
The T/C was 136 % of control.

What about the survivor count (dose: 32.0 mg/kg/injection, schedule: Q01DX005 (iv), vehicle: Klucel (hydroxypropylcellulose) (HPC)) of the same compound?
The survivor count was 3 of 6.

What about the T/C (dose: 32.0 mg/kg/injection, schedule: Q01DX009 (oral), vehicle: other) of the same compound?
Its T/C is 127 % of control.

What about the T/C (dose: 32.0 mg/kg/injection, schedule: Q01DX009 (sc), vehicle: acid diluted with saline) of the same compound?
The T/C was 137 % of control.

And the survivor count (dose: 32.0 mg/kg/injection, schedule: Q03HX008 (oral), vehicle: acid diluted with saline)?
Its survivor count is 5 of 10.

And the survivor count (dose: 32.0 mg/kg/injection, schedule: Q03HX008 (oral), vehicle: other)?
The survivor count was 0 of 10.

And the survivor count (dose: 32.0 mg/kg/injection, schedule: Q03HX016 (oral), vehicle: other)?
Its survivor count is 0 of 10.

And the survivor count (dose: 32.0 mg/kg/injection, schedule: Q03HX024 (oral), vehicle: acid diluted with saline)?
The survivor count was 6 of 10.

What about the survivor count (dose: 32.0 mg/kg/injection, schedule: Q03HX024 (oral), vehicle: other) of the same compound?
The survivor count was 0 of 10.

And the survivor count (dose: 37.5 mg/kg/injection, schedule: Q04DX003 (ip), vehicle: saline with Tween-80)?
Its survivor count is 6 of 6.

What about the survivor count (dose: 39.0 mg/kg/injection, schedule: Q01DX009 (ip), vehicle: saline with Tween-80) of the same compound?
The survivor count was 1 of 10.

And the T/C (dose: 64.0 mg/kg/injection, schedule: Q01DX001 (ip), vehicle: acid diluted with saline)?
The T/C was 131 and 136 % of control.

And the survivor count (dose: 64.0 mg/kg/injection, schedule: Q01DX005 (ip), vehicle: Klucel (hydroxypropylcellulose) (HPC))?
The survivor count was 0 of 6.

And the survivor count (dose: 64.0 mg/kg/injection, schedule: Q01DX005 (iv), vehicle: Klucel (hydroxypropylcellulose) (HPC))?
Its survivor count is 0 of 6.

What about the T/C (dose: 64.0 mg/kg/injection, schedule: Q01DX009 (oral), vehicle: acid diluted with saline) of the same compound?
The T/C was 127 % of control.

And the T/C (dose: 64.0 mg/kg/injection, schedule: Q01DX009 (oral), vehicle: other)?
The T/C was 130 % of control [8 of 10 alive].

And the survivor count (dose: 64.0 mg/kg/injection, schedule: Q03HX008 (oral), vehicle: acid diluted with saline)?
Its survivor count is 1 of 10.

And the survivor count (dose: 64.0 mg/kg/injection, schedule: Q03HX008 (oral), vehicle: other)?
The survivor count was 0 of 10.

What about the survivor count (dose: 64.0 mg/kg/injection, schedule: Q03HX016 (oral), vehicle: acid diluted with saline) of the same compound?
Its survivor count is 0 of 10.

And the survivor count (dose: 64.0 mg/kg/injection, schedule: Q03HX016 (oral), vehicle: other)?
The survivor count was 0 of 10.

And the survivor count (dose: 64.0 mg/kg/injection, schedule: Q03HX024 (oral), vehicle: other)?
Its survivor count is 0 of 10.

What about the survivor count (dose: 64.0 mg/kg/injection, schedule: Q04DX003 (ip), vehicle: acid diluted with saline) of the same compound?
Its survivor count is 10 of 10.

And the survivor count (dose: 100.0 mg/kg/injection, schedule: Q04DX003 (ip), vehicle: saline with Tween-80)?
The survivor count was 2 of 6.

What about the survivor count (dose: 128.0 mg/kg/injection, schedule: Q01DX001 (ip), vehicle: acid diluted with saline) of the same compound?
The survivor count was 0 of 10 and 4 of 10.

And the survivor count (dose: 128.0 mg/kg/injection, schedule: Q01DX001 (ip), vehicle: saline)?
The survivor count was 3 of 10 and 5 of 10.

What about the survivor count (dose: 128.0 mg/kg/injection, schedule: Q01DX001 (oral), vehicle: other) of the same compound?
The survivor count was 4 of 10.

What about the survivor count (dose: 128.0 mg/kg/injection, schedule: Q01DX009 (oral), vehicle: other) of the same compound?
The survivor count was 1 of 10.

What about the survivor count (dose: 128.0 mg/kg/injection, schedule: Q03HX008 (oral), vehicle: acid diluted with saline) of the same compound?
The survivor count was 0 of 10.

What about the survivor count (dose: 128.0 mg/kg/injection, schedule: Q03HX008 (oral), vehicle: other) of the same compound?
The survivor count was 0 of 10.

And the survivor count (dose: 128.0 mg/kg/injection, schedule: Q03HX016 (oral), vehicle: acid diluted with saline)?
The survivor count was 0 of 10.

What about the survivor count (dose: 128.0 mg/kg/injection, schedule: Q03HX016 (oral), vehicle: other) of the same compound?
The survivor count was 0 of 10.

What about the T/C (dose: 128.0 mg/kg/injection, schedule: Q04DX003 (oral), vehicle: acid diluted with saline) of the same compound?
The T/C was 127 % of control.

What about the T/C (dose: 128.0 mg/kg/injection, schedule: Q04DX003 (oral), vehicle: other) of the same compound?
The T/C was 141 % of control [9 of 10 alive].

And the survivor count (dose: 128.0 mg/kg/injection, schedule: Q08DX002 (ip), vehicle: acid diluted with saline)?
The survivor count was 2 of 10.

What about the T/C (dose: 128.0 mg/kg/injection, schedule: Q08DX002 (oral), vehicle: other) of the same compound?
The T/C was 130 % of control [7 of 10 alive].

And the survivor count (dose: 200.0 mg/kg/injection, schedule: Q04DX003 (ip), vehicle: saline with Tween-80)?
Its survivor count is 0 of 6.

What about the survivor count (dose: 256.0 mg/kg/injection, schedule: Q01DX001 (ip), vehicle: acid diluted with saline) of the same compound?
Its survivor count is 0 of 10.

And the survivor count (dose: 256.0 mg/kg/injection, schedule: Q01DX001 (oral), vehicle: other)?
The survivor count was 0 of 10.

What about the survivor count (dose: 256.0 mg/kg/injection, schedule: Q01DX009 (oral), vehicle: other) of the same compound?
The survivor count was 0 of 10.

What about the survivor count (dose: 256.0 mg/kg/injection, schedule: Q04DX003 (oral), vehicle: other) of the same compound?
Its survivor count is 0 of 10.

What about the survivor count (dose: 256.0 mg/kg/injection, schedule: Q08DX002 (oral), vehicle: other) of the same compound?
The survivor count was 0 of 10.

And the survivor count (dose: 400.0 mg/kg/injection, schedule: Q04DX003 (ip), vehicle: saline with Tween-80)?
Its survivor count is 0 of 6.

And the survivor count (dose: 512.0 mg/kg/injection, schedule: Q01DX001 (oral), vehicle: other)?
The survivor count was 0 of 10.

What about the survivor count (dose: 512.0 mg/kg/injection, schedule: Q04DX003 (oral), vehicle: other) of the same compound?
The survivor count was 0 of 10.

And the survivor count (dose: 512.0 mg/kg/injection, schedule: Q08DX002 (oral), vehicle: other)?
The survivor count was 0 of 10.

And the survivor count (dose: 1024.0 mg/kg/injection, schedule: Q01DX001 (oral), vehicle: acid diluted with saline)?
The survivor count was 0 of 10.

And the survivor count (dose: 1024.0 mg/kg/injection, schedule: Q01DX001 (oral), vehicle: other)?
Its survivor count is 0 of 10.

And the survivor count (dose: 1024.0 mg/kg/injection, schedule: Q08DX002 (oral), vehicle: acid diluted with saline)?
Its survivor count is 0 of 10.

And the survivor count (dose: 1024.0 mg/kg/injection, schedule: Q08DX002 (oral), vehicle: other)?
The survivor count was 0 of 10.

Which survivor count (dose: 100.0 mg/kg/injection, schedule: Q01DX005 (ip), vehicle: saline with Tween-80) does the source give for CC(=O)C[n+]1ccccc1Sc1ccccc1C here?
The survivor count was 3 of 5.

What about the survivor count (dose: 200.0 mg/kg/injection, schedule: Q01DX005 (ip), vehicle: saline with Tween-80) of the same compound?
Its survivor count is 0 of 5.

How did the survivor count (dose: 50.0 mg/kg/injection, schedule: Q01DX009 (ip), vehicle: Klucel (hydroxypropylcellulose) (HPC)) turn out when Cc1ccc(S(=O)(=O)N(Cc2ccc(Cl)cc2)S(=O)(=O)c2ccc(C)cc2)cc1 was run?
The survivor count was 6 of 6.

What about the survivor count (dose: 100.0 mg/kg/injection, schedule: Q01DX009 (ip), vehicle: Klucel (hydroxypropylcellulose) (HPC)) of the same compound?
Its survivor count is 6 of 6.

CCOC(=O)c1c(C#N)c2cnn(-c3ccccc3)c2n2cccc12 was tested. Which survivor count (dose: 120.0 mg/kg/injection, schedule: Q01DX005 (ip), vehicle: saline with Tween-80) did it give?
The survivor count was 6 of 6.

What about the survivor count (dose: 240.0 mg/kg/injection, schedule: Q01DX005 (ip), vehicle: saline with Tween-80) of the same compound?
Its survivor count is 6 of 6.

For CCCCCCCCCCCCCCC[N+]1([O-])CCCCCC1, which survivor count (dose: 50.0 mg/kg/injection, schedule: Q01DX009 (ip), vehicle: saline) is on record?
The survivor count was 6 of 6.

What about the survivor count (dose: 100.0 mg/kg/injection, schedule: Q01DX009 (ip), vehicle: saline) of the same compound?
The survivor count was 5 of 6.

And the survivor count (dose: 200.0 mg/kg/injection, schedule: Q01DX009 (ip), vehicle: saline)?
The survivor count was 0 of 6.

How did the T/C (dose: 50.0 mg/kg/injection, schedule: Q04DX003 (ip), vehicle: water) turn out when COc1cccc2c1C(=O)c1c(O)c3c(c(O)c1C2=O)C[C@@H](C(=O)CO)C[C@@H]3OC1CC(N)C(O)C(C)O1 (stereo partly specified) was run?
The T/C was 130 % of control.
